Assay results reported in publication PMC8115569.
These are yes or no findings as the source states them, for the method shown. Binding seen in cells or lysates may run through a third protein. Some binding calls cover weakened binding; strength is not graded here.

Chains of the proteins cited; added tags and fusions are not shown. Residues count along the entry.
UniProt P05106, residues 27-788: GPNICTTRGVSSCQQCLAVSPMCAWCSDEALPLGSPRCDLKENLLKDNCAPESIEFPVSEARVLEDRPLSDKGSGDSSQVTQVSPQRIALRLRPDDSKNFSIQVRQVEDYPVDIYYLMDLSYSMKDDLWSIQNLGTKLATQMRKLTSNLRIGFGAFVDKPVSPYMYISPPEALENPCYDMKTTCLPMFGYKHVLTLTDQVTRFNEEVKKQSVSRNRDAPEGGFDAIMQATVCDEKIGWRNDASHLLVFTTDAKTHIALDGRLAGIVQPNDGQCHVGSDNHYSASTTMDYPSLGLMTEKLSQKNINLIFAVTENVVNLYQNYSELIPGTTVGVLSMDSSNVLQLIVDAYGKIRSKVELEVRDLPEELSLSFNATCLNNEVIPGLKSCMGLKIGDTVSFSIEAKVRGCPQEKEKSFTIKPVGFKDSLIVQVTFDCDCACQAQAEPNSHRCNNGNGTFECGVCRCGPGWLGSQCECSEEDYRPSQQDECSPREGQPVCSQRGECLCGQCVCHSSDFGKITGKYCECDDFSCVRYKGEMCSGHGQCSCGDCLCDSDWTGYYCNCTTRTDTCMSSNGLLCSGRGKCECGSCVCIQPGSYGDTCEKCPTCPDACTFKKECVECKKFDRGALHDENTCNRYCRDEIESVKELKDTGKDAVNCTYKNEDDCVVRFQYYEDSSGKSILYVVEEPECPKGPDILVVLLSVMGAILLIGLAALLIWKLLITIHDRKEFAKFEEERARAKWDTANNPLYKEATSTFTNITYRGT
UniProt P49023: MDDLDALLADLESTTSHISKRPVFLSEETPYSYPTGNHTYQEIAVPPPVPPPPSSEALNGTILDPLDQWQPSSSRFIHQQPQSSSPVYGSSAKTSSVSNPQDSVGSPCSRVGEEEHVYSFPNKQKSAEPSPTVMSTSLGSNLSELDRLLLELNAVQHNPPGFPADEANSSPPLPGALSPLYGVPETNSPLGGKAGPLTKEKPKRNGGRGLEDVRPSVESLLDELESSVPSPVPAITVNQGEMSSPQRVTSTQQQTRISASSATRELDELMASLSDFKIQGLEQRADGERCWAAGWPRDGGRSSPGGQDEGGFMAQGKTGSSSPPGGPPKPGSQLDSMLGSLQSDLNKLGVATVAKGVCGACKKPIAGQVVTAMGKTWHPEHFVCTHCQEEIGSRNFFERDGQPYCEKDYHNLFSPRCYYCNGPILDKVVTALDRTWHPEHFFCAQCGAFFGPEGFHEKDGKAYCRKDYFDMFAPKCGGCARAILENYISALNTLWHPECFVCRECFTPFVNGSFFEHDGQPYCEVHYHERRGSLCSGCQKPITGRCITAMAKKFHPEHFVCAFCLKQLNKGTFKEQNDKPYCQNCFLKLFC
UniProt Q96QZ7: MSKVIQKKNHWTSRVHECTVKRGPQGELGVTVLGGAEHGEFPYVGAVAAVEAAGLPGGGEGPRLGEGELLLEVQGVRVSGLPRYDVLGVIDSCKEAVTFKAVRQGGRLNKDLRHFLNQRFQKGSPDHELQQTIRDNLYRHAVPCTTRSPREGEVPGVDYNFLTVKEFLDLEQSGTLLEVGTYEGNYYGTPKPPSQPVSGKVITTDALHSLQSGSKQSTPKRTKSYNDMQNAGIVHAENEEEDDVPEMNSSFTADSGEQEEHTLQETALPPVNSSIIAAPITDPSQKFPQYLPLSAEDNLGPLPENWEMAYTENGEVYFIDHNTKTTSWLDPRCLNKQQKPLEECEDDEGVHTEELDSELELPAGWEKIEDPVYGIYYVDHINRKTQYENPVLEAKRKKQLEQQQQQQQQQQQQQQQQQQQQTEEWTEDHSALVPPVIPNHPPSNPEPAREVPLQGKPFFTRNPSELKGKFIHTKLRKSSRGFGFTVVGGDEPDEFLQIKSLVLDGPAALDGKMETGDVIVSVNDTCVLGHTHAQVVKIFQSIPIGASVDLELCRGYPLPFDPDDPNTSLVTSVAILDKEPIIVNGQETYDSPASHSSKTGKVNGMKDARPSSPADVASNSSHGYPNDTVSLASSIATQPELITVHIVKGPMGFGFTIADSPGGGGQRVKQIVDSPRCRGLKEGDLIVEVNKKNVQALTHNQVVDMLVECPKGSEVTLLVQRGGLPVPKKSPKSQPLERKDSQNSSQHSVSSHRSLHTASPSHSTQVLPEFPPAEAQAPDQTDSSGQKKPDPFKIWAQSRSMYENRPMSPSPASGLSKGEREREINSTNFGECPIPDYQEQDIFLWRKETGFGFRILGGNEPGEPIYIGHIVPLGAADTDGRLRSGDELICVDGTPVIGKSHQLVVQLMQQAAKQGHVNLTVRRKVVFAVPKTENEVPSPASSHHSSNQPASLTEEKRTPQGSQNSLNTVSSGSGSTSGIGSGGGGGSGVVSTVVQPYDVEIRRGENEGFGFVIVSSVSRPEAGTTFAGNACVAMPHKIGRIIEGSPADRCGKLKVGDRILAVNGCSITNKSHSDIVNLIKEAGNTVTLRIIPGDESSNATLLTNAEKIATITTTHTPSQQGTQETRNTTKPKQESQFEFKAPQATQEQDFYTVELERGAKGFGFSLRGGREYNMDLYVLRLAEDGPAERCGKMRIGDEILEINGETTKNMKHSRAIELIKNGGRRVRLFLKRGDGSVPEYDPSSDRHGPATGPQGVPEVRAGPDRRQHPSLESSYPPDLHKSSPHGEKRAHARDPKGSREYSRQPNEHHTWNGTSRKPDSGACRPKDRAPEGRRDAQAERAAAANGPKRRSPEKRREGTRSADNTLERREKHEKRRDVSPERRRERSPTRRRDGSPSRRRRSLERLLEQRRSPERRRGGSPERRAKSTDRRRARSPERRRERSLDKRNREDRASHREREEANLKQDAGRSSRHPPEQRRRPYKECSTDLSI
UniProt Q9Y490: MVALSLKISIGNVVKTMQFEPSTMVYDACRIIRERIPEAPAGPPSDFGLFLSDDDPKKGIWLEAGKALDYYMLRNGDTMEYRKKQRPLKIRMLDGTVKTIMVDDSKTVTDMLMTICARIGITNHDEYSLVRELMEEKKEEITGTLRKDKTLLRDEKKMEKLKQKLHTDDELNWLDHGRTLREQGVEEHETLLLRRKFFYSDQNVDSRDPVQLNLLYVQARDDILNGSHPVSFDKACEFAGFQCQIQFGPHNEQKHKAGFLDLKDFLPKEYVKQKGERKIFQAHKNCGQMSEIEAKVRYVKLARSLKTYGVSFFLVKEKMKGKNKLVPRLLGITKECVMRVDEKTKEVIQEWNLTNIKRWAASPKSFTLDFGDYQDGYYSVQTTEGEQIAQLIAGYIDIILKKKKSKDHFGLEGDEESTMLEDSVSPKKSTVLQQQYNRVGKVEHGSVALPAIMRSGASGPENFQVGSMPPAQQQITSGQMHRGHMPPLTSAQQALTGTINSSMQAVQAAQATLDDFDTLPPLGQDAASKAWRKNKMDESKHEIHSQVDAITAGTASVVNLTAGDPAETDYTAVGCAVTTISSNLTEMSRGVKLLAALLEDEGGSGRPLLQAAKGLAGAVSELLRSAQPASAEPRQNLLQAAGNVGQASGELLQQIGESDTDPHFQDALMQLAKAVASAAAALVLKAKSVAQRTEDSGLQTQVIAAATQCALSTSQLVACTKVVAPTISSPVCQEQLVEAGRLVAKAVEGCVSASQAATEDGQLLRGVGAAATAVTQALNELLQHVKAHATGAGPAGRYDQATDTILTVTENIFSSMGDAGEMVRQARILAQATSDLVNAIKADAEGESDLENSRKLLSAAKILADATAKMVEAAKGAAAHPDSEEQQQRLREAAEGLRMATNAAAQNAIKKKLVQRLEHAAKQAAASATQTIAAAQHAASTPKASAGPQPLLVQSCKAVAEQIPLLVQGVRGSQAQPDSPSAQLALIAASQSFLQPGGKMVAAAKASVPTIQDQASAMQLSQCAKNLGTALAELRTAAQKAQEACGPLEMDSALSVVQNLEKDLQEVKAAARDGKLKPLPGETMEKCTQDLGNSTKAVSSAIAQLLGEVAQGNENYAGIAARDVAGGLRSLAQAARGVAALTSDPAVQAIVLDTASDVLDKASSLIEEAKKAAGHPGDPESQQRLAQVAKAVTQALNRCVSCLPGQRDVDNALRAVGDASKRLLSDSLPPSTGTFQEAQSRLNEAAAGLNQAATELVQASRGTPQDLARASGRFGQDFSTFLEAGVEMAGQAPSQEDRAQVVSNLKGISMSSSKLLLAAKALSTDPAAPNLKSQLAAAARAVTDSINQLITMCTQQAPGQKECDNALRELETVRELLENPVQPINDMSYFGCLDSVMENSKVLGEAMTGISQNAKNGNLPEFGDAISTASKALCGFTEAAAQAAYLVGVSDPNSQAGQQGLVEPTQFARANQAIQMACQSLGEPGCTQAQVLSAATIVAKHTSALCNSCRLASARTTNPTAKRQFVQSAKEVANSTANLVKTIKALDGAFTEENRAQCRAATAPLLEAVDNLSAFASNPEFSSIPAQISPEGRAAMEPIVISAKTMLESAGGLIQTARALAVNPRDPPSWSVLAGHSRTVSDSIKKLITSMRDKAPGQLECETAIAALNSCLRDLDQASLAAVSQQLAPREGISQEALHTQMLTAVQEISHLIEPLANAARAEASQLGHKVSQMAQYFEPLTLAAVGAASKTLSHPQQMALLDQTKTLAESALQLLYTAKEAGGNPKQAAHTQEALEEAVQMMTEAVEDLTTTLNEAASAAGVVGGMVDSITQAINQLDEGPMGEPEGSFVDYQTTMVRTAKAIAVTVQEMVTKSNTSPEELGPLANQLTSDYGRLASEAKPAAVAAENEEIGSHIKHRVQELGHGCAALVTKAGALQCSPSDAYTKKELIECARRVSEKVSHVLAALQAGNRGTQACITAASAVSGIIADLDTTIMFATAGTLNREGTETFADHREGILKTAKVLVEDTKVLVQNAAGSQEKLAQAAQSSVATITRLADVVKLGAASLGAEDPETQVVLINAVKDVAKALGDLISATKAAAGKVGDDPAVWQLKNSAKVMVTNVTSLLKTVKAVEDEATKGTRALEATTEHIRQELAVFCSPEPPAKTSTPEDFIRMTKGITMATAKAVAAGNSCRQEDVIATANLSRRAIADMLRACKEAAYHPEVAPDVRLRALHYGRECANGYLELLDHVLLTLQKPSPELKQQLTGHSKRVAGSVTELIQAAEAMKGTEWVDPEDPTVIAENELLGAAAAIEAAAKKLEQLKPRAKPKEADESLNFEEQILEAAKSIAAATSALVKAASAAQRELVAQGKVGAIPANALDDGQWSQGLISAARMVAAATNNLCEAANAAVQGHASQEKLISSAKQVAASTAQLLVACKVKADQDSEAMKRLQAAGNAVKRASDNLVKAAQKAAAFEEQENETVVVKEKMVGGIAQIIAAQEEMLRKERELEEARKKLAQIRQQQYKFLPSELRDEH

Experiments:
[1] = biological target: β3-integrin (human (endogenous in HUVEC)) (UniProt P05106); test: co-IP; lysates of adherent HUVEC in NP-40 lysis buffer with protease and phosphatase inhibitors; primary antibody (MAGI1, talin 1, β3-integrin or isotype control IgG) overnight at 4°C, protein G magnetic beads 3 h at 4°C; western blot for talin 1 or MAGI1
[2] = biological target: T1, phosphatase PTP-PEST (human (endogenous in 293 T)) (UniProt Q05209); test: co-IP; lysates of 293 T cells in NP-40 lysis buffer with protease and phosphatase inhibitors; primary antibody overnight at 4°C, protein G magnetic beads 3 h at 4°C; western blot
T1 sequence: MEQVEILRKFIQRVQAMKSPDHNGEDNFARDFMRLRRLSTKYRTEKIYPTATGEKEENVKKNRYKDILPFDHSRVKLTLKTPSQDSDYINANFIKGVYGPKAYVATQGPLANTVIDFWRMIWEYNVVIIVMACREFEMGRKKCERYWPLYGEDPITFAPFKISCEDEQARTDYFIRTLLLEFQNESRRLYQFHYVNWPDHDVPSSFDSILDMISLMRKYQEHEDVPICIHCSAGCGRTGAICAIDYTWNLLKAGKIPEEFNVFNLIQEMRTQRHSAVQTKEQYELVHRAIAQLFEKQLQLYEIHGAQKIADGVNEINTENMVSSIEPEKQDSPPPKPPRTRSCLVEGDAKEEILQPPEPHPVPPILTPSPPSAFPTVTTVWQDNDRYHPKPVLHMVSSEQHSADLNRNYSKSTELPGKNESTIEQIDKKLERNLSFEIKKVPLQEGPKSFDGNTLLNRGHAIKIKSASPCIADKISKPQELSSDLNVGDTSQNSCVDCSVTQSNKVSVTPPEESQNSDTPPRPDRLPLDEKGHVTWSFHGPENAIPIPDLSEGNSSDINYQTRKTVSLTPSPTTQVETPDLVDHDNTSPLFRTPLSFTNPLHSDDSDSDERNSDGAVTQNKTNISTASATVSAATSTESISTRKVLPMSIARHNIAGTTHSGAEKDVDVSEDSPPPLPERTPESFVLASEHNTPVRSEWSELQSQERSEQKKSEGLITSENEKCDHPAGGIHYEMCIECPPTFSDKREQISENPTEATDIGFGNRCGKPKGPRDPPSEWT

[3] = biological target: paxillin (human (endogenous in 293 T)) (UniProt P49023); test: as above
[4] = biological target: MAGI1 (Membrane associated guanylate kinase, WW and PDZ domain containing 1) (human (endogenous in HUVEC)) (UniProt Q96QZ7); test: co-IP; lysates of adherent HUVEC in NP-40 lysis buffer with protease and phosphatase inhibitors; primary antibody (MAGI1, talin 1, β3-integrin or isotype control IgG) overnight at 4°C, protein G magnetic beads 3 h at 4°C; western blot for talin 1 or MAGI1

Row | Substance | binding [1] | binding [2] | binding [3] | binding [4]
1 | MAGI1 (Membrane associated guanylate kinase, WW and PDZ domain containing 1) (from UniProt Q96QZ7 1-1491) | binds | binds | binds | 
2 | talin 1 (from UniProt Q9Y490 1-2541) |  |  |  | binds
